# Percent effect of library compounds

The chains behind the UniProt entries cited, without tags or fusion partners.
UniProt I6X8D2, whole entry: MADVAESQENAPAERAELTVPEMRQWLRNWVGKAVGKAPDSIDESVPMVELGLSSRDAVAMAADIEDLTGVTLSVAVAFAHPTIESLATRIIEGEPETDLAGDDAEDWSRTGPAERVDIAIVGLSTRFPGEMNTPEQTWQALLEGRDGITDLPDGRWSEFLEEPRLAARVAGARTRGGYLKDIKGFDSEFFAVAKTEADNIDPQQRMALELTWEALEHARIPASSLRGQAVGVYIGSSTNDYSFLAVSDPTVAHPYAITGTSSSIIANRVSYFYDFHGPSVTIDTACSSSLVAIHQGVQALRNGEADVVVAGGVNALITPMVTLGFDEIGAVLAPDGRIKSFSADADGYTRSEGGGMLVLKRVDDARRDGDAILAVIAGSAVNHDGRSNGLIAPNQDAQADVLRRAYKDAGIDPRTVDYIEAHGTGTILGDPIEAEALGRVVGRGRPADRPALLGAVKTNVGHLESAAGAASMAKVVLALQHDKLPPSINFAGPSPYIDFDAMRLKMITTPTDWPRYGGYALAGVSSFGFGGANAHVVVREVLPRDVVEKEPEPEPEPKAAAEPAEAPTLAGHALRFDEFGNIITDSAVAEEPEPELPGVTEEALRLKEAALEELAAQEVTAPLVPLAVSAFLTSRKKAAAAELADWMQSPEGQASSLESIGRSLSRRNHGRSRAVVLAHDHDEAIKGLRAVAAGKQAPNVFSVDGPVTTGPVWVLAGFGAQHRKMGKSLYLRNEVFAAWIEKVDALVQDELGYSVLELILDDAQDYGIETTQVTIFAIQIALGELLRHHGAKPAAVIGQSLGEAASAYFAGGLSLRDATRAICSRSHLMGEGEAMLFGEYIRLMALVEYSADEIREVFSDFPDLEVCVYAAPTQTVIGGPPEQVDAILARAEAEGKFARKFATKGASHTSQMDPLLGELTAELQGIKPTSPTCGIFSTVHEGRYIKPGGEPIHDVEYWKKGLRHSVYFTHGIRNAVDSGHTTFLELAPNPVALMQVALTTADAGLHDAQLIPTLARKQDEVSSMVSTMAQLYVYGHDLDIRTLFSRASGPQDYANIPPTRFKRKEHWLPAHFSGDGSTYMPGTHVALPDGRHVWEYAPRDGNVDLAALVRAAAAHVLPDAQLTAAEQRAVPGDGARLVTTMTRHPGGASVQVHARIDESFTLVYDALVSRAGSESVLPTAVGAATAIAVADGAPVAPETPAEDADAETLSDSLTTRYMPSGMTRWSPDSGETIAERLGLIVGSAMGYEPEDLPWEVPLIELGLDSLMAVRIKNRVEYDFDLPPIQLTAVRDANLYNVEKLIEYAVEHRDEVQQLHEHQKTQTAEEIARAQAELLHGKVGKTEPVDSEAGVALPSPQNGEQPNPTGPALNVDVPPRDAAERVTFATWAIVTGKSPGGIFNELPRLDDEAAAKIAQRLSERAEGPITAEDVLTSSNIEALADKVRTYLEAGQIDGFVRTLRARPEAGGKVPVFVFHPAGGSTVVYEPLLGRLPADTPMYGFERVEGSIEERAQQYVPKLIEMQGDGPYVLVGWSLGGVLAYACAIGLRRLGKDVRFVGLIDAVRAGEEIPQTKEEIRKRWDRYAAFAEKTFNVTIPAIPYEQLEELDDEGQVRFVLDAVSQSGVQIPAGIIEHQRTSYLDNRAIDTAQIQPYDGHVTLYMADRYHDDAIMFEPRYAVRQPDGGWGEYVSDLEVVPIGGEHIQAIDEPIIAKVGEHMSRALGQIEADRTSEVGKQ

Data taken from ChEMBL document CHEMBL3988442, “University of Dundee, Small-Polar-MMV Screening Library” (2021).

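Enzyme assay of the thioesterase domain of polyketide synthase 13; the read-out is not stated. Target: Polyketide synthase Pks13, Mycobacterium tuberculosis (UniProt I6X8D2). Concentration: 30 µM. The record gives no direction; the compounds picked for IC50 retests had high values, so higher reads as stronger inhibition. Size under these conditions: about 67,000 compounds, about 300 of them at 50% or above in at least one test.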

Values are the deposited “Percent Effect”, in %. How 0% and 100% were set is not recorded. Most values in the screen are low, and negative values occur. The compounds are a random part of those screened.

Compound | effect
CCn1cnnc1CNC(=O)N1CCN(Cc2ccccc2)CC1 | -19.05
CS(=O)(=O)NC1CCN(C(=O)c2coc(CN3CCOCC3)c2)CC1 | -1.259
CCn1c(C)nnc1SCCNC(=O)Cn1cnc2ccccc2c1=O | -11.44
OC(CN(Cc1ccccc1)Cc1ccon1)c1cccs1 (stereo not shown) | -47.23
Fc1ccc(C2CN(c3ncnc4[nH]ncc34)CCO2)cc1 (stereo not shown) | 10.57
Cc1cncc(C2CCCN(CC3CCC3)C2)n1 (stereo not shown) | 17.3
CC(C)c1noc(CN2CCC(c3ccnn3CCO)CC2)n1 | -5.156
CC(c1ccco1)N(C(=O)CNc1ccc(C#N)cc1)C1CC1 (stereo not shown) | 6.615
Cc1ccc(-c2ccc(C(=O)NCCC(=O)N(C)C)c(F)c2)cc1 | 23.37
CCc1noc(C)c1C(=O)NCc1c(C)nn(CCOC)c1C | -27.3
O=C1C[C@@H]2CCN(Cc3ccccc3)C[C@@H]2CCN1c1ccccc1 | -16.92
CC(=O)N1C[C@@H]2CC[C@H](C1)N(S(=O)(=O)c1cc(F)ccc1C)C2 | -5.887
CC(=O)N1CCN(CCNS(=O)(=O)c2c(F)cccc2F)CC1 | -14.06
Cc1nc(C(C)C)sc1C(=O)NCCn1ccnc1 | -35.92
CSc1ncccc1C(=O)NC(C)c1cccc(N2CCOC2=O)c1 (stereo not shown) | -6.034
Cc1nnc(C(C)N2CCc3[nH]c4ccccc4c3C2)o1 (stereo not shown) | -6.815
CCOCCN1CCN(Cc2coc(-c3cccc(F)c3)n2)CC1 | -23.87
CC(C)c1cc(C2CCN(C(=O)Cn3cnc4ccccc43)CC2)[nH]n1 | -15.67
CC(C)NC(=O)Nc1cccc2c1CCN(S(C)(=O)=O)C2 | 14.28
COCc1nn(C)c2c1CCN(Cc1cnn(C)c1)C2 | -21.4
CCCOc1ccc2ccccc2c1CN1CC[C@@]2(O)CCNC[C@H]2C1 | -34.56
COc1ccc(CN(C)[C@@H]2COC[C@H]2c2ccc(F)cc2)cc1 | 28.27
O=C(NCC1CC1)[C@H]1CC[C@@H]2[C@@H](CCN2Cc2nccs2)O1 | -10.42
COc1cccc(NC(C(N)=O)c2ccc(Br)cc2)c1 (stereo not shown) | -20.9
CCC(=O)N1CC[C@H](O)[C@@H]1Cc1ccccc1 | -28.81
CC(C)c1nc(CNc2ccc(CCO)cc2)cs1 | -15.99
CCN(Cc1nccn1C)C(=O)c1ccc(NCc2ccccc2)nc1 | -7.046
CSCC[C@@H](CO)Nc1ccc(-c2nc(C3CC3)no2)cn1 | -4.243
CCCn1cc(S(=O)(=O)N(C)Cc2nonc2C)c(C)n1 | 7.033
CSCCC(=O)NCc1cc2n(n1)CCN(C(=O)N(C)C)C2 | -33.05
CC(=O)N1C[C@H](NS(=O)(=O)N2CCOCC2)[C@@H](c2ccc(C)o2)C1 | -14.98
Cc1ccc(C(C)NCc2cn(CCC(N)=O)c3ccccc23)cc1C (stereo not shown) | -47.08
Cc1cnn(CC(C)NCC(=O)NC2CCOCC2)c1 (stereo not shown) | -27.94
CCS(=O)(=O)N1CCC2(CCCN(Cc3ccc(F)c(F)c3)C2=O)C1 (stereo not shown) | 10.6
Cc1ccc(C)n1-c1ccc(C(=O)NCCNc2ncccn2)cc1 | -0.6991
CCn1cc(S(=O)(=O)N2CCN(S(=O)(=O)c3ccc(Br)s3)CC2)c(C)n1 | -6.873
CN(Cc1cccnc1)[C@@H]1CN(c2ncc(F)cn2)[C@@H]2CCCO[C@H]12 | -10.07
Cc1ccccc1CN1C[C@@H](C(=O)N2CCCCO2)C[C@H]2OCC[C@H]21 | -4.571
CSC(C)(C)CNC(=O)NCc1cccc(-n2ccnc2)c1 | -4.33
CN(Cc1cccc(F)c1)C(=O)c1ccncc1Cl | -32.16
Cc1cnc(CCNC(=O)NCCOc2ncccc2Cl)s1 | -26.22
CN1[C@@H](c2ccccc2)[C@@H](C(=O)NCc2ccncc2)C[C@@]1(C)C(=O)O | -10.07
CCCn1nnnc1CSc1nccn1C | -36.84
CCN1CCC(CC(=O)N2CCN(c3ccccc3OC)CC2C)CC1 (stereo not shown) | -28.52
CCN(Cc1nonc1C)C(=O)c1cc(C(F)(F)F)nn1C | -6.937
O=C(CCC1CCN(C2Cc3ccccc3C2)CC1)NCC1CCCO1 (stereo not shown) | -7.723
CCCn1nc2c(cc1=O)CN(CC(=O)N(C)c1nccs1)CC2 | 6.485
CCC(NC(=O)C(C)(C)C)c1ccccc1C (stereo not shown) | -1.081
Cc1nn(C)c(=O)c2nn(-c3ccc(Cl)cc3)c(C)c12 | -5.335
Cc1ccc(CNC(=O)Nc2nccs2)cn1 | -18.95
COc1ccccc1C1CCN(c2ccc3cc[nH]c3n2)CC1 | -22.99
Cc1nc(-c2ccc(Cl)s2)sc1C(=O)NCCS(N)(=O)=O | 54.01
CC(C)NC(=O)[C@H]1C[C@@H]2CN(C(=O)NC(C)C)C[C@H]1O2 | -10.46
COCc1nc(C(=O)N2CCCC2c2ccncc2)cs1 (stereo not shown) | -19.47
COc1ccc(C(C)(C)C)cc1CN1CCn2c(CO)nnc2C1 | 9.508
Cc1cnc(C)c(N2CCC(Cc3ccccc3Cl)(C(=O)O)CC2)n1 | -9.78
CCn1cc(C(=O)N2C[C@H]3C[C@H](Oc4ccccc4)C[C@H]3C2)cn1 | -3.057
CN(C)CCCn1ccnc1C1CCCN(c2cc(N)ncn2)C1 (stereo not shown) | -1.719
O=C(O)c1coc(COc2cccc3cnccc23)n1 | 7.569
COc1ccccc1CN(Cc1nc(C)no1)C1CC1 | -1.349
CCCn1nccc1-c1cnc(CC2CCN(C(C)=O)C2)cn1 (stereo not shown) | 13.18
CCN(Cc1noc(C(C)(C)C)n1)Cc1ccc(C#N)cc1F | 4.966
CC1CCc2c(c3ccccc3[nH]c2=O)O1 (stereo not shown) | -17.65
COc1cccc(OCCNCc2c(C)nn(C)c2N(C)C)c1 | -25.68
O=C(NCCCOC1CCCCC1)C1NCCc2[nH]cnc21 (stereo not shown) | -15
COc1cc(Cl)ccc1C(=O)NCc1n[nH]c(C)n1 | -14.87
O=C(COC[C@@]12CCC[C@@H]1CN(C1CCC1)C2)N1CCCC1 | -8.179
CC1CN(C)CCN1C(=O)c1cccn1Cc1cccnc1 (stereo not shown) | -8.013
Cc1nn(CC(C)C)c(N(C)C)c1CNCCCNS(C)(=O)=O | -12.36
O=C1CC[C@@H](C(=O)N2CCc3[nH]nc(COc4cccc(Cl)c4)c3C2)N1 | -29.96
Cc1ccc(OCCCNC(=O)C2(C)CC(=O)N3C=CC=CC3=N2)cc1 (stereo not shown) | -13.62
Cn1cc(CN2C[C@@H]3CCCO[C@@H]3[C@H](NC(=O)CC3CC3)C2)cn1 | 29.95
O=C(c1cc(F)ccc1F)C1CCN(C(=O)c2cnccn2)CC1 | -20.43
CCn1cc(NC(=O)NCc2ccc3c(c2)OCCO3)cn1 | -1.69
CCn1ncc2c1C(COCC1CC1)N(Cc1ccccn1)CC2 (stereo not shown) | -14.97
Cc1cc(C)c(S(=O)(=O)Nc2c(C)nc(N3CCCC3)nc2C)cc1C | -67.58
Cc1cccc(C2CCCN2C(=O)CN(C)S(C)(=O)=O)c1C (stereo not shown) | -21.67

For reference, 4 entries once more:

Compound,effect
O=C1CC[C@@H](C(=O)N2CCc3[nH]nc(COc4cccc(Cl)c4)c3C2)N1,-29.96
OC(CN(Cc1ccccc1)Cc1ccon1)c1cccs1 (stereo not shown),-47.23
O=C(COC[C@@]12CCC[C@@H]1CN(C1CCC1)C2)N1CCCC1,-8.179
COc1ccc(CN(C)[C@@H]2COC[C@H]2c2ccc(F)cc2)cc1,28.27